Reference: PMC6761483
These are yes or no findings as the source states them, for the method shown. Binding can be weak; no strength is given.

Target: T1, KELCH-repeat region of AtFKF1 (amino acids 284 to 619) (Arabidopsis thaliana) (UniProt Q9C9W9)
T1 sequence: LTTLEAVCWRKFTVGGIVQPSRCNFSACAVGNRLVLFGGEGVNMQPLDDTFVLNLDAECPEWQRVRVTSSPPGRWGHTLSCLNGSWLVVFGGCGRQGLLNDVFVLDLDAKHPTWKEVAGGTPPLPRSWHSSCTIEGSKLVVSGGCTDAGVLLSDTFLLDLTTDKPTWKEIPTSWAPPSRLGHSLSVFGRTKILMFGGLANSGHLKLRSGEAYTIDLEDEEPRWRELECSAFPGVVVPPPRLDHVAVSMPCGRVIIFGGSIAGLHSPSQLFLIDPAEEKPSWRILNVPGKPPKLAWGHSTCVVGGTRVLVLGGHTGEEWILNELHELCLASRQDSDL
Test: two-hybrid; prey in pDEST22 (AD) in yeast PJ69-4A mated with bait in pDEST32 (BD) in PJ69-4α; diploids plated on SD -Trp -Leu -His with 0, 1, 2, 10, 25, 50 and 100 mM 3-AT; colonies over 11 days at 28°C; two independent clones

Substance	binding
MtCDFc1 (Medicago truncatula)	binds
MtCDFd1_1 (Medicago truncatula)	no binding
